{"source": "patent US20220193181A1", "about": "(priority 2020, published 2022)", "origin": "cited, not measured here", "system": "SARS-CoV-2 patients", "conditions": "in vivo; cited from earlier work", "note": "At least one structure is not confirmed: it was looked up by name or label, or the drawing left a doubt."}
{"smiles": "CCC(CC)COC(=O)[C@H](C)N[P@](=O)(OC[C@H]1O[C@@](C#N)(c2ccc3c(N)ncnn23)[C@H](O)[C@@H]1O)Oc1ccccc1", "note": "[Remdesivir]", "values": [{"measurement": "mortality", "result": "without affecting"}, {"measurement": "reducing the disease duration", "result": "limited efficacy"}]}
